The list shows only some results of the screen, not a fair sample: it is rich in T/C values a quarter to a half above the control, in often repeated tests (any T/C) and in doses without a T/C. Other doses and runs of a compound stand elsewhere. T/C gives the treated animals as a percentage of the vehicle group. Some entries give survivors of the animals treated and no T/C: the source holds a T/C of zero for them, seemingly a mark for toxic or unscored doses. Some survivor counts are full or nearly so, which does not show that the dose was tolerated: survival well below the control is almost never listed, so the zero probably covers shortened survival too. Counts of survivors are from the toxicity check (mostly the fifth day) where no day follows; animals may have died later. Schedules are NCI's codes, read here as Q, the interval in days (D) or hours (H), X, the number of doses. Some schedule codes hold Z or #, which are not explained here. Some doses were run more than once; the results are listed from low to high. For survival time, the PubChem record calls one and a half times the control and up active, and a quarter to a half above the control has no call in these data; cut-offs in other NCI protocols can differ. Some T/C values carry the count of animals alive at the toxicity check (mostly the fifth day); without a count, all were alive then.
Test system: BDF1 mice, intracerebral L1210 leukemia, survival T/C
Experiment: NCI In Vivo Anticancer Drug Screen. Data for tumor model L1210 Leukemia (intracerebral) in B6D2F1 (BDF1) mice
Details: higher T/C = longer survival
Method in brief: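 Transplantable tumour-bearing mice, compound-treated vs vehicle controls; read-out survival, reported as T/C ratio.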

[1] = T/C endpoint: mean survival time, dose: 133.0 mg/kg/injection, schedule: Q01DX001 (ip), vehicle: saline with Tween-80
[2] = T/C endpoint: mean survival time, dose: 200.0 mg/kg/injection, schedule: Q01DX001 (ip), vehicle: saline with Tween-80
[3] = T/C endpoint: mean survival time, dose: 56.0 mg/kg/injection, schedule: Q01DX001 (ip), vehicle: other

In the case of `O=NN(CCCl)C(=O)Nc1ccc(SCC(=O)O)cc1`, the survivor count (T/C endpoint: mean survival time, dose: 40.0 mg/kg/injection, schedule: Q01DX001 (ip), vehicle: carboxymethylcellulose (CMC)) is reported as 10 of 10.

For `C[C@H](N)C(=O)N[C@@H]1[C@H]2C(=C(O)C[C@@H](O)[C@@H]2O)C(=O)O[C@@H]1C`, the survivor count (T/C endpoint: mean survival time, dose: 4600.0 mg/kg/injection, schedule: Q01DX001 (ip), vehicle: saline) was 2 of 10.

With `CN(N=O)C(=O)Nc1c[nH]c(=O)[nH]c1=O` the T/C (T/C endpoint: mean survival time, dose: 240.0 mg/kg/injection, schedule: Q01DX001 (ip), vehicle: saline) was 129 % of control.

For `Nc1n[nH]c(N)n1`, the T/C (T/C endpoint: mean survival time, dose: 500.0 mg/kg/injection, schedule: Q01DX Z (ip), vehicle: saline) was 125 % of control and the T/C (T/C endpoint: mean survival time, dose: 500.0 mg/kg/injection, schedule: Q03HX024 (ip), vehicle: saline) was 128 % of control.

In the case of `O=C1CN=C(c2ccc[nH]2)c2cc(Cl)ccc2N1`, the survivor count (T/C endpoint: median survival time, dose: 50.0 mg/kg/injection, schedule: Q01DX009 (ip), vehicle: other) is reported as 5 of 8.

For `O=NN(CCF)C(=O)NC1CCS(=O)(=O)CC1`, the T/C (T/C endpoint: mean survival time, dose: 4.8 mg/kg/injection, schedule: Q01DX001 (oral), vehicle: other) was 128 % of control, the T/C (T/C endpoint: mean survival time, dose: 6.0 mg/kg/injection, schedule: Q01DX001 (ip), vehicle: other) was 126 % of control and the survivor count (T/C endpoint: mean survival time, dose: 48.0 mg/kg/injection, schedule: Q01DX001 (ip), vehicle: other) was 5 of 10. The survivor count (T/C endpoint: mean survival time, dose: 60.0 mg/kg/injection, schedule: Q01DX001 (ip), vehicle: other) was 5 of 10, the survivor count (T/C endpoint: mean survival time, dose: 80.0 mg/kg/injection, schedule: Q01DX001 (ip), vehicle: other) was 3 of 10 and the survivor count (T/C endpoint: mean survival time, dose: 80.0 mg/kg/injection, schedule: Q01DX001 (oral), vehicle: other) was 2 of 10. For the same molecule, the survivor count (T/C endpoint: mean survival time, dose: 120.0 mg/kg/injection, schedule: Q01DX001 (ip), vehicle: other) was 2 of 10.

For `O=NN1CCCNC1=O`, the survivor count (T/C endpoint: mean survival time, dose: 300.0 mg/kg/injection, schedule: Q01DX001 (ip), vehicle: carboxymethylcellulose (CMC)) was 0 of 10, the survivor count (T/C endpoint: mean survival time, dose: 375.0 mg/kg/injection, schedule: Q01DX001 (ip), vehicle: carboxymethylcellulose (CMC)) was 1 of 10 and the survivor count (T/C endpoint: mean survival time, dose: 600.0 mg/kg/injection, schedule: Q01DX001 (ip), vehicle: carboxymethylcellulose (CMC)) was 0 of 10.

`CN(C)/N=N/c1nc[nH]c1C(N)=O` was tested, and the survivor count (T/C endpoint: mean survival time, dose: 270.0 mg/kg/injection, schedule: Q01DX Z (ip), vehicle: carboxymethylcellulose (CMC)) was 10 of 10, the survivor count (T/C endpoint: mean survival time, dose: 720.0 mg/kg/injection, schedule: Q01DX001 (ip), vehicle: carboxymethylcellulose (CMC)) was 4 of 10 and the survivor count (T/C endpoint: mean survival time, dose: 1080.0 mg/kg/injection, schedule: Q01DX001 (ip), vehicle: carboxymethylcellulose (CMC)) was 0 of 10. For the same molecule, the survivor count (T/C endpoint: mean survival time, dose: 1620.0 mg/kg/injection, schedule: Q01DX001 (ip), vehicle: carboxymethylcellulose (CMC)) was 3 of 10, the survivor count (T/C endpoint: median survival time, dose: 640.0 mg/kg/injection, schedule: Q01DX009 (ip), vehicle: carboxymethylcellulose (CMC)) was 3 of 10 and the survivor count (T/C endpoint: median survival time, dose: 800.0 mg/kg/injection, schedule: Q01DX009 (ip), vehicle: carboxymethylcellulose (CMC)) was 0 of 8.

`CS(=O)(=O)Nc1ccc(Nc2c3ccccc3nc3cc(N)ccc23)cc1` was tested, and the survivor count (T/C endpoint: mean survival time, dose: 4.0 mg/kg/injection, schedule: Q01DX009 (ip), vehicle: saline) was 10 of 10, the survivor count (T/C endpoint: mean survival time, dose: 8.0 mg/kg/injection, schedule: Q01DX009 (ip), vehicle: saline) was 6 of 10 and the survivor count (T/C endpoint: mean survival time, dose: 8.0 mg/kg/injection, schedule: Q01DX009 (sc), vehicle: saline) was 10 of 10.

For `O=NN(CCF)C(=O)NC1CCSCC1`, the T/C (T/C endpoint: mean survival time, dose: 7.0 mg/kg/injection, schedule: Q01DX001 (ip), vehicle: other) was 135 and 136 % of control, the survivor count (T/C endpoint: mean survival time, dose: 62.0 mg/kg/injection, schedule: Q01DX001 (ip), vehicle: other) was 6 of 10 and the survivor count (T/C endpoint: mean survival time, dose: 81.0 mg/kg/injection, schedule: Q01DX001 (ip), vehicle: other) was 5 of 10. For the same molecule, the survivor count (T/C endpoint: mean survival time, dose: 121.0 mg/kg/injection, schedule: Q01DX001 (ip), vehicle: other) was 0 of 10.

In the case of `CCCCCCCCCCCCCCCC(=O)Nc1ccn(C2OC(CO)C(O)C2O)c(=O)n1` (configuration not stated), the survivor count (T/C endpoint: median survival time, dose: 50.0 mg/kg/injection, schedule: Q01DX009 (ip), vehicle: distilled water + Tween-80 + alcohol) is reported as 10 of 10, the survivor count (T/C endpoint: median survival time, dose: 100.0 mg/kg/injection, schedule: Q01DX009 (ip), vehicle: distilled water + Tween-80 + alcohol) is reported as 9 of 10 and the survivor count (T/C endpoint: median survival time, dose: 200.0 mg/kg/injection, schedule: Q01DX009 (ip), vehicle: distilled water + Tween-80 + alcohol) is reported as 4 of 10.

With `O=NN(CCCl)C(=O)N[C@H]1CCCC[C@H]1O` the T/C (T/C endpoint: mean survival time, dose: 12.0 mg/kg/injection, schedule: Q01DX001 (ip), vehicle: saline with Tween-80) was 131 % of control, the survivor count (T/C endpoint: mean survival time, dose: 90.0 mg/kg/injection, schedule: Q01DX001 (ip), vehicle: saline with Tween-80) was 9 of 10 and the survivor count [1] was 10 of 10. For the same molecule, the survivor count [2] was 9 of 10.

With `O=NN(CCCl)C(=O)NC1CCC(O)CC1` (configuration not stated) the survivor count (T/C endpoint: mean survival time, dose: 133.0 mg/kg/injection, schedule: Q01DX001 (ip), vehicle: saline) was 9 of 10 and the survivor count (T/C endpoint: mean survival time, dose: 200.0 mg/kg/injection, schedule: Q01DX001 (ip), vehicle: saline) was 4 of 10.

In the case of `O=NN(CCCl)C(=O)N[C@H]1CCC[C@@H](O)C1`, the survivor count [1] is reported as 10 of 10 and the survivor count [2] is reported as 6 of 10.

For `CC(Cl)CN(N=O)C(=O)NC1CCCCC1` (configuration not stated), the T/C (T/C endpoint: mean survival time, dose: 375.0 mg/kg/injection, schedule: Q01DX001 (ip), vehicle: other) was 134 % of control, the T/C (T/C endpoint: mean survival time, dose: 500.0 mg/kg/injection, schedule: Q01DX001 (ip), vehicle: other) was 127 % of control and the T/C (T/C endpoint: mean survival time, dose: 750.0 mg/kg/injection, schedule: Q01DX001 (ip), vehicle: other) was 130 % of control. For the same molecule, the survivor count (T/C endpoint: mean survival time, dose: 1000.0 mg/kg/injection, schedule: Q01DX001 (ip), vehicle: other) was 6 of 10.

`CN(N=O)C(=O)NCCSc1ncnc2nc[nH]c12` was tested, and the T/C (T/C endpoint: mean survival time, dose: 750.0 mg/kg/injection, schedule: Q01DX001 (ip), vehicle: carboxymethylcellulose (CMC)) was 129 % of control [8 of 10 alive] and the survivor count (T/C endpoint: mean survival time, dose: 1000.0 mg/kg/injection, schedule: Q01DX001 (ip), vehicle: carboxymethylcellulose (CMC)) was 2 of 10.

`Nc1nc(=O)n(C2OC(CO)C(O)C2O)cc1F` (configuration not stated) was tested, and the T/C (T/C endpoint: median survival time, dose: 4.0 mg/kg/injection, schedule: Q01DX009 (ip), vehicle: water) was 132 % of control [7 of 8 alive], the T/C (T/C endpoint: median survival time, dose: 128.0 mg/kg/injection, schedule: Q01DX009 (ip), vehicle: saline) was 135 % of control [7 of 8 alive] and the T/C (T/C endpoint: median survival time, dose: 256.0 mg/kg/injection, schedule: Q01DX009 (ip), vehicle: saline) was 129 % of control.

In the case of `NCCCCS(=O)(=O)Nc1ccc(Nc2c3ccccc3nc3cc([N+](=O)[O-])ccc23)cc1`, the survivor count (T/C endpoint: mean survival time, dose: 100.0 mg/kg/injection, schedule: Q01DX009 (ip), vehicle: saline) is reported as 9 of 10 and the survivor count (T/C endpoint: mean survival time, dose: 200.0 mg/kg/injection, schedule: Q01DX009 (ip), vehicle: saline) is reported as 7 of 10.

With `CN(C)N=Nc1ccc(C(N)=O)cc1` the T/C (T/C endpoint: median survival time, dose: 80.0 mg/kg/injection, schedule: Q01DX009 (ip), vehicle: saline with Tween-80) was 137 % of control and the T/C (T/C endpoint: median survival time, dose: 160.0 mg/kg/injection, schedule: Q01DX009 (ip), vehicle: saline with Tween-80) was 145 % of control.

For `COCCOC1=C(N2CC2)C(=O)C(OCCOC)=C(N2CC2)C1=O`, the T/C (T/C endpoint: mean survival time, dose: 1.0 mg/kg/injection, schedule: Q01DX009 (ip), vehicle: saline) was 126 % of control.

With `O=NN(CCF)C(=O)NC1CC2CCC1C2` (configuration not stated) the survivor count (T/C endpoint: mean survival time, dose: 37.0 mg/kg/injection, schedule: Q01DX001 (ip), vehicle: other) was 6 of 10, the T/C [3] was 287, 306 [9 of 10 alive], 320 % of control and the survivor count [3] was 0 of 10. For the same molecule, the survivor count (T/C endpoint: mean survival time, dose: 84.0 mg/kg/injection, schedule: Q01DX001 (ip), vehicle: other) was 0 of 10 and 6 of 10 and the survivor count (T/C endpoint: mean survival time, dose: 126.0 mg/kg/injection, schedule: Q01DX001 (ip), vehicle: other) was 0 of 10 and 5 of 10.

`Cc1cccc2c(Nc3ccc(NS(C)(=O)=O)cc3)c3ccc([N+](=O)[O-])cc3nc12` was tested, and the survivor count (T/C endpoint: mean survival time, dose: 40.0 mg/kg/injection, schedule: Q01DX009 (ip), vehicle: saline) was 10 of 10, the survivor count (T/C endpoint: mean survival time, dose: 80.0 mg/kg/injection, schedule: Q01DX009 (ip), vehicle: saline) was 10 of 10 and the survivor count (T/C endpoint: mean survival time, dose: 80.0 mg/kg/injection, schedule: Q01DX009 (sc), vehicle: saline) was 8 of 10.
